Among the data in patent US10363323B2 (RUPRECHT-KARLS-UNIVERSITAT HEIDELBERG, priority 2011, dated 2019) are conjugation yield and step yield values, retold here.

The nature of this data set: general procedure: peptide synthesis; polystyrene copolymerized with polyoxyethylen; dicyclohexylcarbodiimide, hydroxybenzotriazole, benzotriazil-1-yl-oxytris (dimet).

For the setting “conjugation step”, “stearoyl-[K(DOTA)]3-NLSTSNPLGFFPDHQLDP-amide” came in with a conjugation yield of 55%.
As for “stearoyl-[K(DOTA[Gd])]3-NLSTSNPLGFFPDHQLDP-amide”, the step yield (late stage modification step) was found to be 77%.
